{"source": "PubChem BioAssay AID1159578 (Peter MacCallum Cancer Centre, 2015)", "assay": "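Knock-downs that alter how fast lymphatic endothelial cells migrate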 (primary screen)", "system": "human lymphatic endothelial cells", "reagents": "siRNA pool against human genes, 40 nM", "timing": "48 h after transfection", "measured": "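Cells stained with dye and imaged after a scratch; covered wound area and nuclei counted, duplicates averaged, migration set against mock wells and turned into a robust z-score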", "direction": "migration robust z-score: higher = faster migration into the scratch; nuclei per well: higher = more cells in the well", "rule for the call": "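Pools averaging fewer than 3300 nuclei are never called; remaining pools count as changed when migration robust z lies outside -2 to 2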", "meaning of the calls": "active = migration changed; inactive = no migration change, or too few cells", "note": "The whole screen tested about 18,000 reagents; below is an unselected part. About 1,030 of them (5.7%) count as active. 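Inactive calls also include pools with fewer than 3300 nuclei, whose migration was not assessed.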 Raw values vary from plate to plate and are shown uncorrected. The numbers tell different reagents against one gene apart. Not all columns of the deposit are shown. Reagent sequences are not shown."}
{"target":"AK9 (adenylate kinase 9)","reagent no.":1,"migration robust z-score":-0.02,"nuclei per well, duplicate mean":6702,"activity call":"inactive"}
{"target":"AK9 (adenylate kinase 9)","reagent no.":2,"migration robust z-score":-0.62,"nuclei per well, duplicate mean":5572,"activity call":"inactive"}
{"target":"AK9 (adenylate kinase 9)","reagent no.":3,"migration robust z-score":1.05,"nuclei per well, duplicate mean":6380,"activity call":"inactive"}
{"target":"DDX4 (DEAD-box helicase 4)","reagent no.":1,"migration robust z-score":-0.7,"nuclei per well, duplicate mean":5608,"activity call":"inactive"}
{"target":"COL4A3 (collagen type IV alpha 3 chain)","reagent no.":1,"migration robust z-score":0.26,"nuclei per well, duplicate mean":6570,"activity call":"inactive"}
{"target":"IMMT (inner membrane mitochondrial protein)","reagent no.":1,"migration robust z-score":0.37,"nuclei per well, duplicate mean":6324,"activity call":"inactive"}
{"target":"JPH3 (junctophilin 3)","reagent no.":1,"migration robust z-score":0.84,"nuclei per well, duplicate mean":5679,"activity call":"inactive"}
{"target":"DNAH12 (dynein axonemal heavy chain 12)","reagent no.":1,"migration robust z-score":0.82,"nuclei per well, duplicate mean":7894,"activity call":"inactive"}

Records listed so far whose gene name starts with A or a:
{"target":"AK9 (adenylate kinase 9)","reagent no.":1,"migration robust z-score":-0.02,"nuclei per well, duplicate mean":6702,"activity call":"inactive"}
{"target":"AK9 (adenylate kinase 9)","reagent no.":2,"migration robust z-score":-0.62,"nuclei per well, duplicate mean":5572,"activity call":"inactive"}
{"target":"AK9 (adenylate kinase 9)","reagent no.":3,"migration robust z-score":1.05,"nuclei per well, duplicate mean":6380,"activity call":"inactive"}

More results:
{"target":"CFHR1 (complement factor H related 1)","reagent no.":1,"migration robust z-score":1.09,"nuclei per well, duplicate mean":6304,"activity call":"inactive"}
{"target":"LRRC8D (leucine rich repeat containing 8 VRAC subunit D)","reagent no.":1,"migration robust z-score":-1.3,"nuclei per well, duplicate mean":5717,"activity call":"inactive"}
{"target":"NKIRAS1 (NFKB inhibitor interacting Ras like 1)","reagent no.":1,"migration robust z-score":-1.27,"nuclei per well, duplicate mean":686,"activity call":"inactive"}
{"target":"ZNF253 (zinc finger protein 253)","reagent no.":1,"migration robust z-score":0.1,"nuclei per well, duplicate mean":5285,"activity call":"inactive"}
